These are yes or no findings as the source states them, for the method shown. In cells and extracts the contact can be indirect. Some binding calls cover weakened binding; strength is not graded here. Where a sequence is shown, tags or fusion partners need not be part of it.
T1: mycobacterial lipoamide dehydrogenase C (LpdC), BiFC fusion (Mycobacterium tuberculosis) (UniProt P9WHH9)
T1 sequence: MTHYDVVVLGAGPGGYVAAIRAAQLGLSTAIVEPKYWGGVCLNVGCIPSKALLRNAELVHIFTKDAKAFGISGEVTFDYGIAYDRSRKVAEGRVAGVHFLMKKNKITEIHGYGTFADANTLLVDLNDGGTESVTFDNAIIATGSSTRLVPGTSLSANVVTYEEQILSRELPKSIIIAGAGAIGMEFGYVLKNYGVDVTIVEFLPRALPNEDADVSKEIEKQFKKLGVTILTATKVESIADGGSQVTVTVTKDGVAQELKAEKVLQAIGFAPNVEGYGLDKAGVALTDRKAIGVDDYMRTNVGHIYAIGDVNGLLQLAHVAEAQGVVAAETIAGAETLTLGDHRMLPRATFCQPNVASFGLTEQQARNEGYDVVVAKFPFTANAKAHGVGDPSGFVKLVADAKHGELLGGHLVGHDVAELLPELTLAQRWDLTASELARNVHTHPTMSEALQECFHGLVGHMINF

T2: mycobacterial lipoamide dehydrogenase C (LpdC), construct of the co-IP (Mycobacterium tuberculosis) (UniProt P9WHH9)
T2 sequence: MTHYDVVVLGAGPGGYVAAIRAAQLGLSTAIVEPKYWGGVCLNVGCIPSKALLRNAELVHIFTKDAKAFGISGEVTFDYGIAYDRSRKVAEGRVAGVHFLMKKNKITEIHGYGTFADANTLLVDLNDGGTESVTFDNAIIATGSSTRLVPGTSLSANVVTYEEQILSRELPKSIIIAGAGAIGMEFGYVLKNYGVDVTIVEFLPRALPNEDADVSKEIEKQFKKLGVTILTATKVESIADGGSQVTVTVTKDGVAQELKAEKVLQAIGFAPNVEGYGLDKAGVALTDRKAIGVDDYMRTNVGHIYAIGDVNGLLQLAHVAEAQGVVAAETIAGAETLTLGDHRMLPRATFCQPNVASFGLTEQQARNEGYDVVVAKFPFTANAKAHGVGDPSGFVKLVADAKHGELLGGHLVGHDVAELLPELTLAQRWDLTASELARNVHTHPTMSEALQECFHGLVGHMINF


Experiments:
[1] = molecular target: T1, mycobacterial lipoamide dehydrogenase C (LpdC), BiFC fusion (Mycobacterium tuberculosis); assay: split reporter
[2] = molecular target: T2, mycobacterial lipoamide dehydrogenase C (LpdC), construct of the co-IP (Mycobacterium tuberculosis); assay: co-IP

Binder | binding [1] | binding [2]
bCoronin-2A, BiFC fusion (protein, UniProt Q32LP9 1-525) MSWHPQYRSSKFRHVFGKPASKENCYDSVPITHSVQDNHFCAVNPHFIAVVTECTGGGAFLVIPLHQTGKLDPHYPKVCGHRGNVLDVKWNPFNDFEIASCSEDATIKIWDIPKQLLTKNLTAFRKELVGHARKVGLVEWHPTAANILFSSGYDYKVMVWNLDSKESVIMSPVKTINCHQDVILSMSFNTNGSLLATACKDRKIRVLDPRAGTVLQEANYKGHRANKVLFLGNLKKLLSTGTSRWNNRQMALWDQDDLSVPVTEVDLDGSSGVLFPFYDADTNMLYVVGKGDRNIHYYEISANKPHLNYLMEYHSYNPQKGIGVMPKRGLDVSSCEIFRFYKLITTKSLIEPVSMIVPRRSESYQEDIYPPTASAQPSLTAQEWLSGMNKEPVLMSLRPGAEPLSPQPLPSERTLSMPTAPTSPHLFNQTESLVAEDGRRPFSLLEEKAPRWAAEHRQEEKKTWLSDGFDIFECPPPKTENELLQMFYRQQDEIRRLRELVTQREVQAKQLELEIRNLRMNSPRL | binds | –
bCoronin-2A (co-IP construct) (protein, UniProt Q32LP9 1-525) MSWHPQYRSSKFRHVFGKPASKENCYDSVPITHSVQDNHFCAVNPHFIAVVTECTGGGAFLVIPLHQTGKLDPHYPKVCGHRGNVLDVKWNPFNDFEIASCSEDATIKIWDIPKQLLTKNLTAFRKELVGHARKVGLVEWHPTAANILFSSGYDYKVMVWNLDSKESVIMSPVKTINCHQDVILSMSFNTNGSLLATACKDRKIRVLDPRAGTVLQEANYKGHRANKVLFLGNLKKLLSTGTSRWNNRQMALWDQDDLSVPVTEVDLDGSSGVLFPFYDADTNMLYVVGKGDRNIHYYEISANKPHLNYLMEYHSYNPQKGIGVMPKRGLDVSSCEIFRFYKLITTKSLIEPVSMIVPRRSESYQEDIYPPTASAQPSLTAQEWLSGMNKEPVLMSLRPGAEPLSPQPLPSERTLSMPTAPTSPHLFNQTESLVAEDGRRPFSLLEEKAPRWAAEHRQEEKKTWLSDGFDIFECPPPKTENELLQMFYRQQDEIRRLRELVTQREVQAKQLELEIRNLRMNSPRL | – | binds

— PMC11806767
